Taken from: PubChem BioAssay AID504784 (Drosophila RNAi Screening Center, 2011)
The screen tested about 17,000 reagents; this is a random part of those that have a named target and a result. 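Each column is one replicate's B-score; the combined score over replicates was not deposited, so single values may mislead.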

- Purpose: 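Genome-wide knock-down for genes giving too much or too little stored lipid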 (primary screen)
- Cells: Drosophila Kc167 embryonic cells
- Reagents: long dsRNA against Drosophila genes, about 250 ng dsRNA per well
- Duration: 4 days
- Treatment: cells fed 400 µM oleic acid bound to BSA
- Measured: 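Microscope images give a droplet-to-nucleus area ratio, taken as log and converted to a screen-wide B-score; higher values mean greater lipid storage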
- Direction: droplet/nuclear area B-score: higher = more stored lipid (overstorage)

CG12377 (retired record) [DRSC11671]
- droplet/nuclear area B-score, replicate 1: -0.672
- droplet/nuclear area B-score, replicate 2: 0.57

CG12377 (retired record) [DRSC11672]
- droplet/nuclear area B-score, replicate 1: -0.93
- droplet/nuclear area B-score, replicate 2: 1.25

CG16786 [DRSC04281]
- droplet/nuclear area B-score, replicate 1: 1.04
- droplet/nuclear area B-score, replicate 2: 0.617

Ets65A [DRSC09968]
- droplet/nuclear area B-score, replicate 1: 0.364
- droplet/nuclear area B-score, replicate 2: 1.13

Ets65A [DRSC10738]
- droplet/nuclear area B-score, replicate 1: 1.16
- droplet/nuclear area B-score, replicate 2: 0.308

Ets65A [DRSC11164]
- droplet/nuclear area B-score, replicate 1: -2.92
- droplet/nuclear area B-score, replicate 2: 0.223

CG7702 [DRSC16293]
- droplet/nuclear area B-score, replicate 1: 1.94
- droplet/nuclear area B-score, replicate 2: 1.16

CG4815 [DRSC15653]
- droplet/nuclear area B-score, replicate 1: -3
- droplet/nuclear area B-score, replicate 2: 0.423

CG4161 [DRSC01930]
- droplet/nuclear area B-score, replicate 1: 0.468
- droplet/nuclear area B-score, replicate 2: 1.67

CG7600 [DRSC09681]
- droplet/nuclear area B-score, replicate 1: -1.03
- droplet/nuclear area B-score, replicate 2: 1.82

Rab6 [DRSC03404]
- droplet/nuclear area B-score, replicate 1: 0.615
- droplet/nuclear area B-score, replicate 2: -0.307

olf186-M [DRSC07657]
- droplet/nuclear area B-score, replicate 1: 1.01
- droplet/nuclear area B-score, replicate 2: -0.203

CG7231 [DRSC03034]
- droplet/nuclear area B-score, replicate 1: 1.88
- droplet/nuclear area B-score, replicate 2: -0.583

CG8746 [DRSC07257]
- droplet/nuclear area B-score, replicate 1: 1.65
- droplet/nuclear area B-score, replicate 2: 1.05

CG7379 [DRSC16237]
- droplet/nuclear area B-score, replicate 1: -0.361
- droplet/nuclear area B-score, replicate 2: -0.672
- droplet/nuclear area B-score, replicate 3: 0.367

CG1806 [DRSC19787]
- droplet/nuclear area B-score, replicate 1: -0.563
- droplet/nuclear area B-score, replicate 2: -1.14
- droplet/nuclear area B-score, replicate 3: -0.305

Single entries from the entries so far.
Value for CG12377 (retired record) [DRSC11671] under “droplet/nuclear area B-score, replicate 1”: -0.672
Rab6 [DRSC03404], droplet/nuclear area B-score, replicate 2: -0.307
Entry for CG16786 [DRSC04281] in “droplet/nuclear area B-score, replicate 1”: 1.04
Ets65A [DRSC11164], droplet/nuclear area B-score, replicate 2 = 0.223

The results go on.
shtd [DRSC20166]
- droplet/nuclear area B-score, replicate 1: 1.27
- droplet/nuclear area B-score, replicate 2: -1.16
- droplet/nuclear area B-score, replicate 3: -0.731

Ir60a [DRSC04212]
- droplet/nuclear area B-score, replicate 1: -0.197
- droplet/nuclear area B-score, replicate 2: -0.0996

TSG101 [DRSC11098]
- droplet/nuclear area B-score, replicate 1: 0.36
- droplet/nuclear area B-score, replicate 2: 0.791

Eglp3 [DRSC04293]
- droplet/nuclear area B-score, replicate 1: 1.62
- droplet/nuclear area B-score, replicate 2: -0.269

Setx [DRSC10859]
- droplet/nuclear area B-score, replicate 1: 1.21
- droplet/nuclear area B-score, replicate 2: 0.156

CG5770 [DRSC06954]
- droplet/nuclear area B-score, replicate 1: 2.81
- droplet/nuclear area B-score, replicate 2: -0.33

Gprk2 [DRSC16682]
- droplet/nuclear area B-score, replicate 1: 0.129
- droplet/nuclear area B-score, replicate 2: 3.3

Gprk2 [DRSC23336]
- droplet/nuclear area B-score, replicate 1: 1.4
- droplet/nuclear area B-score, replicate 2: 0.343

CG14715 [DRSC14938]
- droplet/nuclear area B-score, replicate 2: -0.839

CG7509 [DRSC08596]
- droplet/nuclear area B-score, replicate 1: -2.02
- droplet/nuclear area B-score, replicate 2: 0.798

CG31769 [DRSC01361]
- droplet/nuclear area B-score, replicate 1: 0.0814
- droplet/nuclear area B-score, replicate 2: -1.42
